Assay results: paper PMC4062936
Results are given in words; binding and its absence hold for the method and conditions named. Binding seen in cells or lysates may run through a third protein. Some results given as binding are weak or reduced against the parent protein; the word gives no strength. For some of these results: Where a sequence is shown, tags or fusion partners need not be part of it.

Amino acid sequences for entries named in this document (tags omitted).
UniProt Q96D31: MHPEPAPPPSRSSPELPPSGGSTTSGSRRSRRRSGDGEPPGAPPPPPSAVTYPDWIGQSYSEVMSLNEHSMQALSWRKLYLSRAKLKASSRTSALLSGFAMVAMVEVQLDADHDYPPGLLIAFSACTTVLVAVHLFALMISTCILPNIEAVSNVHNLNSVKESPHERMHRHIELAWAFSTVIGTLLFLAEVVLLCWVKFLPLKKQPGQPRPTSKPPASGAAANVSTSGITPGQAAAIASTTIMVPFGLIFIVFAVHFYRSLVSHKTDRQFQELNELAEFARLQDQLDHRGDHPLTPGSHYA
UniProt P24588: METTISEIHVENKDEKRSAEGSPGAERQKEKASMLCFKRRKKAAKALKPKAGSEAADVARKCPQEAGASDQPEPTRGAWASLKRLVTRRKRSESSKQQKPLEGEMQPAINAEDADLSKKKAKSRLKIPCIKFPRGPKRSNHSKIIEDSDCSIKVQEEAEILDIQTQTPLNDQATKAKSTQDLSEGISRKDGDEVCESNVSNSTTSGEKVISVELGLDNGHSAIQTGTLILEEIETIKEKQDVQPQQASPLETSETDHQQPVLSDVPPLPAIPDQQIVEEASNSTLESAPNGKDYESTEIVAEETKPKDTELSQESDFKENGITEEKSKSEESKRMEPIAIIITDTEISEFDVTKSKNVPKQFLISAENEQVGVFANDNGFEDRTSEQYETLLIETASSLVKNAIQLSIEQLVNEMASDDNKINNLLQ

Assays:
[1] = target: T1, NFAT1(1-460)-GFP fusion protein (UniProt Q60591); experiment: co-IP; GFP-tagged protein immunoprecipitated from transfected cells, blot for the partner; lysis buffer with low Ca2+ (4 mM EGTA)
T1 sequence: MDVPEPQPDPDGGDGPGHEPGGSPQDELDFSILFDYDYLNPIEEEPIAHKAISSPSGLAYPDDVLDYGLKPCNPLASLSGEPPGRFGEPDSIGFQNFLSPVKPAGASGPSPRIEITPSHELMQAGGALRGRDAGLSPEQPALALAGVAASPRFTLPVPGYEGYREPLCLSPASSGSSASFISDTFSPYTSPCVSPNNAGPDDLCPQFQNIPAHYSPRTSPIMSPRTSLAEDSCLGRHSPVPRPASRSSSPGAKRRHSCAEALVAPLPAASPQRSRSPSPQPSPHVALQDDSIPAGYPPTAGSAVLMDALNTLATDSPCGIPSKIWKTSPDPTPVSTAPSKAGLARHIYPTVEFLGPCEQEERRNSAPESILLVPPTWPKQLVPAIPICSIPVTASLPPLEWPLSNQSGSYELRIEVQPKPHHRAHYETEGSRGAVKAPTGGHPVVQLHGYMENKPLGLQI

[2] = target: T1, NFAT1(1-460)-GFP fusion protein; experiment: co-IP; GFP-tagged protein immunoprecipitated from transfected cells, blot for the partner; lysis buffer with high Ca2+ (2 mM CaCl2)
[3] = target: T1, NFAT1(1-460)-GFP fusion protein; experiment: as above; remark: listed apart in the source
full-length Orai1-GFP = full-length Orai1-GFP (UniProt Q96D31); experiment: co-IP; 'pull-down' of GFP-tagged Orai1, N1-Orai3 or Orai3, blot for AKAP79 (Figure 4H) or calcineurin (Figure S3D); after store depletion according to the abstract, conditions not told otherwise

“endogenous AKAP79 (from UniProt P24588 1-427)” was tested, and the binding [1] was “binds”, the binding [2] was “no binding (condition: high-Ca2+ lysis buffer)” and the binding [3] was “binds”. The binding (full-length Orai1-GFP) was “binds”.
